Test results: US12076331B2, “Inositol derivatives for use in pathological crystallization” (ETH Zurich, priority 2015, dated 2024)

Tested on: RPTEC/TERT 1 human proximal tubule cells
Test: RNA sequencing of Ca/P treated RPTEC
Assay type: cell-based
Conditions: 50 μM, 24 h, fold change ≥ 1.5 and p≤ 0.05
From the text: A) Heatmap and hierarchical clustering of relative gene expression levels determined by RNA sequencing. […] Weighted set coverage of gene ontology terms and their respective enrichment score for differentially expressed genes in the Ca/P vs. medium control group is plotted (all FDR≤0.05). D) Normalized count of gene transcripts (FPKM—fragments per kilobase of exon model per million reads mapped) involved in inflammatory responses, ECM composition, cell proliferation and tissue homeostasis of the different treatment groups is plotted (mean+SD, N=3).
Cells were cultured as described in the imaging assay and treated with a medium control (ProxUp basal medium containing 1/1 mM Ca/P), 5/7 mM Ca/P, 5/7 mM Ca/P in medium containing 50 µM (OEG2)2-IP4 or 50 µM (OEG2)2-IP4 in medium for 24 h. Total RNA was extracted using the RNeasy kit (Quiagen) according to the manufacturer's instructions. Three wells per sample group were prepared and total RNA extracted of those 3 wells pooled. mRNA was purified and RNAseq library was prepared using the TrueSeq RNA kit (Illumina). Sequencing was performed on a Novaseq 6000 (Illumina). Reads were aligned to the human reference genome GRCh38.p10 using the STAR tool (https://github.com/alexdobin/STAR) and transcripts quantified using the Kallisto program (42). Ensembl release 91 was used for the gene model definitions. […] The heatmap was plotted using R software. Overrepresentation analysis was performed on Webgestalt.org (v2019) (43), using differentially expressed genes with p≤0.01, log 2fold change ≥ 0.5. Differential expressed genes were compared to the gene ontology—biological process functional database and as a reference set the human genome—protein coding was used. The weighted set cover of the top 30 enriched categories was plotted. For comparison of expression levels of the selected genes, the fragments per kilobase of exon model per million reads mapped (FPKM) were used. Three independent experiments were performed. RNA sequencing raw data is available on the EMBL Nucleotide Sequence Database (ENA) under the accession number PRJEB38397.

COCCOCCO[C@@H]1C(OP(=O)(O)O)[C@H](OCCOCCOC)[C@@H](OP(=O)(O)O)C(OP(=O)(O)O)[C@H]1OP(=O)(O)O (stereo partly shown) [(OEG2)2-IP4]
differentially expressed genes, (OEG2)2-IP4 only vs. positive ctrl: 2935
differentially expressed genes, Ca/P+(OEG2)2-IP4 vs. (OEG2)2-IP4 only: 77
differentially expressed genes, Ca/P+(OEG2)2-IP4 vs. negative ctrl: 76
differentially expressed genes, Ca/P+(OEG2)2-IP4 vs. positive ctrl: 2437
